Data source: PubChem BioAssay AID504791 (Drosophila RNAi Screening Center, 2011)
Assay: 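Factors in Argonaute-based small RNA production and activity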 (primary screen). System: Drosophila S2-derived reporter cells. Reagent: long dsRNA against Drosophila genes, about 150-250 ng dsRNA per well (siRNA assay); about 80-120 ng (miRNA assay). Time to read-out: about 5 days (siRNA assay); about 4 days (miRNA assay). Conditions: copper sulfate induction of reporters: 25 µM (siRNA assay); 200 mM stated (miRNA assay), 1-2 days before reading. Read-out: 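Dual luciferase assay: Renilla to firefly signal ratio in each well, scaled to the mean ratio of its plate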. Direction: siRNA reporter hit score: higher = 3 marks a strong hit with raised ratio; -3 a strong hit with lowered ratio. Rule for the call: 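a well was a first-pass pick when its plate-scaled ratio rose above 1.5 (siRNA assay) or 1.6 (miRNA assay), or dropped below 0.6; a gene counted only if two separate dsRNAs agreed on retest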.
The deposit covers about 23,000 reagents; shown is a random part of those with a known target gene and a result. Over the whole deposit, 199 (0.86%) were called active. 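Plate-scaled ratios behind the calls are not deposited; printed light signals are raw; many rows marked increased or decreased are still called inactive.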 Unmarked entries are inactive. Names joined by + are all predicted targets of the reagent. No sequences are given here.

| target | PubChem SID | siRNA reporter hit score | stable siRNA reporter change | miRNA reporter change | stable assay Renilla, run 1 (luminescence) | stable assay firefly, run 1 (luminescence) |
| --- | --- | --- | --- | --- | --- | --- |
| red (red Malpighian tubules) | SID104194269 | – | reporter ratio raised past the hit cutoff | – | 7114 | 2.36e5 |
| red (red Malpighian tubules) | SID104202534 | – | – | – | 2644 | 2.72e5 |
| Secp43 (tRNA Selenocysteine associated protein) | SID104180246 | – | – | – | 9589 | 3.76e5 |
| CG8303 | SID104186932 | – | – | – | 5975 | 2.94e5 |
| QC (Glutaminyl cyclase) | SID104189528 | – | – | – | 7754 | 4.96e5 |
| Irk2 (Inwardly rectifying potassium channel 2) | SID104195361 | – | – | – | 9578 | 3.36e5 |
| CG5541 | SID104199738 | – | – | – | 7826 | 4.91e5 |
| Nubp1 (NUBP iron-sulfur cluster assembly factor 1) | SID104182431 | – | – | – | 1.52e5 | 1.92e6 |
| Upf3 | SID104183884 | – | – | – | 20775 | 1.25e6 |
| Hex-t1 (Hexokinase testis 1) | SID104196493 | – | – | – | 7315 | 3.88e5 |
| CG14743 | SID104186271 | – | – | – | 7215 | 3.28e5 |
| CG3916 | SID104195312 | – | – | – | 6080 | 3.54e5 |
| RpS28a (Ribosomal protein S28a) | SID104194856 | – | – | – | 6835 | 3.97e5 |
| CG10510 | SID104191406 | – | reporter ratio lowered past the hit cutoff | – | 4795 | 4.12e5 |
| Srlp (Spliceosome-ribosome linker protein) | SID104195682 | 3 | – | reporter ratio raised past the hit cutoff | 4971 | 3.44e5 |
| unc-5 | SID104185337 | – | – | – | 5299 | 3.64e5 |
| unc-5 | SID104187503 | – | – | – | 4471 | 2.90e5 |
| unc-5 | SID104187504 | – | – | – | 5215 | 2.73e5 |
| CG11629 | SID104183487 | – | – | – | 5944 | 3.36e5 |
| CG13958 (retired record) | SID104182092 | – | – | – | 6658 | 4.32e5 |
| Bicra | SID104194209 | – | – | – | 6212 | 3.02e5 |
| Idua (alpha-L-iduronidase) | SID104182733 | – | – | – | 5683 | 5.53e5 |
| conu (conundrum) | SID104187602 | – | – | – | 6435 | 4.56e5 |
| CG32633 | SID104198779 | – | – | – | 4502 | 4.05e5 |
| CG7900 | SID104196128 | – | – | – | 4003 | 3.35e5 |
| CG7900 | SID104201122 | – | – | – | 10119 | 5.74e5 |
| CG40486 | SID104200411 | – | – | – | 7171 | 4.00e5 |
| RpL22 (Ribosomal protein L22) | SID104198499 | – | reporter ratio raised past the hit cutoff (active) | – | 5007 | 2.82e5 |
| RpL22 (Ribosomal protein L22) | SID104202178 | – | – | – | 3075 | 2.61e5 |
| Rfx | SID104196612 | – | – | – | 7330 | 4.66e5 |
| RabX2 | SID104198026 | – | – | – | 4587 | 3.57e5 |
| CG10479 | SID104189525 | – | – | reporter ratio raised past the hit cutoff | 7511 | 3.29e5 |
| CG31560 | SID104191928 | – | – | – | 6722 | 5.12e5 |
| CG18558 | SID104180317 | – | – | – | 8174 | 6.07e5 |
| CG18558 | SID104201300 | – | – | – | 9370 | 6.26e5 |
| Ak2 (Adenylate kinase 2) | SID104183835 | – | – | – | 6952 | 6.20e5 |
| CG13931 | SID104188192 | – | – | – | 5916 | 2.76e5 |
| CG16976 (retired record) | SID104188054 | – | – | – | 9823 | 4.49e5 |
| CG16976 (retired record) | SID104188291 | – | – | – | 6275 | 3.33e5 |
| CG30391 | SID104201283 | – | – | – | 9969 | 5.33e5 |
| Opa1 (Optic atrophy 1) | SID104186983 | – | – | – | 7198 | 4.06e5 |
| CG13036 (retired record) | SID104189708 | – | – | – | 7496 | 3.68e5 |
| Abcd3 (ATP binding cassette subfamily D member 3) | SID104199280 | – | – | – | 7266 | 5.60e5 |
| CG34435 | SID104197878 | – | – | – | 5843 | 3.65e5 |
| CG11380 | SID104198424 | – | – | – | 4179 | 1.99e5 |
| CG11380 | SID104202580 | – | – | – | 4243 | 2.58e5 |
| CG4593 | SID104198166 | – | – | – | 5906 | 2.88e5 |
| CG9733 | SID104196341 | – | – | – | 7783 | 3.25e5 |
| CG42675 | SID104191949 | – | – | – | 8556 | 5.08e5 |
| CG42675 | SID104201506 | – | – | – | 10566 | 8.22e5 |

Copied from the entries so far, 14 entries:
| target | PubChem SID | siRNA reporter hit score | stable siRNA reporter change | miRNA reporter change | stable assay Renilla, run 1 (luminescence) | stable assay firefly, run 1 (luminescence) |
| --- | --- | --- | --- | --- | --- | --- |
| Upf3 | SID104183884 | – | – | – | 20775 | 1.25e6 |
| Hex-t1 (Hexokinase testis 1) | SID104196493 | – | – | – | 7315 | 3.88e5 |
| CG14743 | SID104186271 | – | – | – | 7215 | 3.28e5 |
| CG3916 | SID104195312 | – | – | – | 6080 | 3.54e5 |
| RpS28a (Ribosomal protein S28a) | SID104194856 | – | – | – | 6835 | 3.97e5 |
| CG10510 | SID104191406 | – | reporter ratio lowered past the hit cutoff | – | 4795 | 4.12e5 |
| Srlp (Spliceosome-ribosome linker protein) | SID104195682 | 3 | – | reporter ratio raised past the hit cutoff | 4971 | 3.44e5 |
| unc-5 | SID104185337 | – | – | – | 5299 | 3.64e5 |
| unc-5 | SID104187503 | – | – | – | 4471 | 2.90e5 |
| unc-5 | SID104187504 | – | – | – | 5215 | 2.73e5 |
| CG11629 | SID104183487 | – | – | – | 5944 | 3.36e5 |
| CG13958 (retired record) | SID104182092 | – | – | – | 6658 | 4.32e5 |
| Bicra | SID104194209 | – | – | – | 6212 | 3.02e5 |
| Idua (alpha-L-iduronidase) | SID104182733 | – | – | – | 5683 | 5.53e5 |

Further entries:
| target | PubChem SID | siRNA reporter hit score | stable siRNA reporter change | miRNA reporter change | stable assay Renilla, run 1 (luminescence) | stable assay firefly, run 1 (luminescence) |
| --- | --- | --- | --- | --- | --- | --- |
| Ubc87F (Ubiquitin conjugating enzyme 87F) | SID104196305 | – | – | – | 9537 | 4.74e5 |
| hrg (hiiragi) | SID104187294 | – | reporter ratio raised past the hit cutoff (active) | – | 8594 | 2.68e5 |
| stol (stolid) | SID104181748 | – | – | – | 6688 | 2.52e5 |
| antr (antares) | SID104201870 | – | – | – | 5779 | 6.96e5 |
| CG34408 | SID104197525 | – | – | – | 7349 | 4.56e5 |
| CG34408 | SID104201547 | – | reporter ratio raised past the hit cutoff | – | 8822 | 3.71e5 |
| CG34408 | SID104202413 | – | – | – | 5259 | 2.92e5 |
| CG34408 | SID104205830 | – | – | reporter ratio lowered past the hit cutoff | – | – |
| CG3649 | SID104184192 | – | – | – | 5288 | 3.60e5 |
| CG12860 | SID104185992 | – | – | – | 6294 | 3.06e5 |
| Tudor-SN (Tudor staphylococcal nuclease) | SID104188373 | – | – | – | 14272 | 4.79e5 |
| Arfrp1 (ADP-ribosylation factor related protein 1) | SID104198209 | – | reporter ratio lowered past the hit cutoff | – | 7630 | 7.17e5 |
| Abp1 (Actin binding protein 1) | SID104189485 | – | – | – | 6515 | 3.48e5 |
| lbk (lambik) | SID104186970 | – | – | – | 9609 | 3.57e5 |
| CG31882 | SID104180876 | – | – | – | 4771 | 4.40e5 |
| CG32638 | SID104198760 | – | – | – | 5631 | 4.73e5 |
| Spn43Aa (Serpin 43Aa) | SID104185909 | – | – | – | 45948 | 2.19e6 |
| pdm2 (POU domain protein 2) | SID104182288 | – | – | – | 6580 | 3.51e5 |
| pdm2 (POU domain protein 2) | SID104182289 | – | – | – | 5535 | 2.36e5 |
| pdm2 (POU domain protein 2) | SID104183379 | – | – | – | 8539 | 3.88e5 |
| CG31759 | SID104181022 | – | – | – | 5391 | 4.30e5 |
| ND-19 (NADH dehydrogenase (ubiquinone) 19 kDa subunit) | SID104184196 | – | – | – | 5494 | 4.61e5 |
| CG31875 | SID104201583 | – | – | – | 9205 | 6.35e5 |
| CG12644 (retired record) | SID104197642 | – | – | – | 5067 | 4.22e5 |
| Obp57c + Obp57b | SID104201538 | – | – | – | 9358 | 5.09e5 |
| CG13426 | SID104186180 | – | – | – | 6450 | 3.63e5 |
| can (cannonball) | SID104190456 | – | – | – | 4492 | 3.62e5 |
| CG17002 | SID104184770 | – | – | – | 58831 | 1.14e6 |
| CG42570 | SID104189183 | – | – | – | 6332 | 6.12e5 |
| CG10341 | SID104181832 | – | – | – | 67337 | 1.00e6 |
| Mvb12 (Multivesicular body subunit 12) | SID104199819 | – | – | – | 5868 | 4.60e5 |
| CG12279 | SID104194287 | – | – | – | 6200 | 4.83e5 |
| CG5149 | SID104182611 | – | – | – | 11058 | 7.97e5 |
